{"source": "patent US8207131B2", "about": "(Megmilk Snow Brand Co., Ltd., priority 2006, dated 2012)", "assay": "general procedure: Fmoc solid-phase peptide synthesis; HMP resin", "settings": "whole synthesis, 215 nm, scale 0.25 mmol", "note": "No end group written: not given here.", "data": [{"sequence": "HPIKHQGLPQ", "values": [{"measurement": "final HPLC purity", "value": 98, "unit": "%"}]}]}
